From patent US20140072558A1
Results are given in words; binding and its absence hold for the method and conditions named. Some binding calls cover weakened binding; strength is not graded here.

Amino acid sequences for entries named in this document (tags omitted). Residues count along the entry.
UniProt P80370, residues 24-383: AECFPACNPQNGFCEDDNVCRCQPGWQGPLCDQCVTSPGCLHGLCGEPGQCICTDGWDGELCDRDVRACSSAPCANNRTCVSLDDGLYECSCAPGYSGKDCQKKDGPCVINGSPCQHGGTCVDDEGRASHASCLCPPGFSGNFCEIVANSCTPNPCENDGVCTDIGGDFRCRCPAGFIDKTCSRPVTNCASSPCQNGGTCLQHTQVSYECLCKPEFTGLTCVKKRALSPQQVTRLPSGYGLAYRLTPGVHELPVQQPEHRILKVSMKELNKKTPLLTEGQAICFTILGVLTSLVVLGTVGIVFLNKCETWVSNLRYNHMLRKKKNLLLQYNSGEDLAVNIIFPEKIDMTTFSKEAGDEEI

Assays:
[1] = target: DLK1 on 293E cells expressing DLK1 (UniProt P80370); test: flow cytometry and fluoroimmunoassay
[2] = target: DLK1 on 293E cells expressing DLK1 (UniProt P80370); test: flow cytometry on 293E cells expressing DLK1

- binding [1]: binds
- binding [2]: binds
B1: B09 antibody (antibody, V domains shown)
VH: QMQLVESGGRLVRPGGSLRLSCAASGFPFTSYAMNWVRQTPGKGLEWVSTITATSGKTYYADSVKGRFTISRDNSRNTLFLQMNSLRAEDTAVYYCVRGESCSGGACSDFDYWGQGALVTVSS
VL: QLVLTQPASVSGSPGQSVTISCTGTSSDIGRYNRVSWYQHHPGKAPKLILNDVTTRPSGFSNRFSGSKSGNTASLTISGLQAEDEADYSCGSYAGSYTYVFGTGTKVTVLG
